Measured values: PMC12548414
Among all 1,600 compounds or so, about 20 (1%) showed an effect of 50% or more. The list shows a part of the results.

What follows are molecules tested on T1, E. coli pLC1021 (luc-trpAt trans-translation reporter). Conditions: reporter signal, KKL-35 = 100%; rise means trans-translation inhibition; 2 h, 20 µM.
T1 construct: pLC1021 luc-trpAt reporter strain
Design: species or system Escherichia coli pLC1021; luc-trpAt non-stop luciferase reporter; luminescence rises when trans-translation is inhibited; normalized to KKL-35 and DMSO
Method in brief: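 Luminescence (560 nm, 10 min after Bright-Glo) reports luciferase that escapes trans-translation tagging, measured after 2 h room-temperature treatment with 20 µM compound. Each plate was scaled between DMSO (negative) and 20 µM KKL-35 (positive) controls. Compounds scoring one standard deviation above the median counted as positive; at least two biological repeats.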

Compound | % activation
COC(=O)c1ccc(N2C(=O)CC(N(CCc3ccccc3)C(S)=Nc3ccccc3)C2=O)cc1 (centres unmarked) [KKL-1398] | 3%
CC(C)(C)c1ccc(C(=O)NC(=S)Nc2ccc(F)cc2)cc1Br [KKL-1435] | 13%
O=C(C=Cc1cccs1)N1CCN(Cc2ccc3c(c2)OCO3)CC1 [KKL-1759] | 0%
Cc1c(OC(=O)c2cccc([N+](=O)[O-])c2)ccc2c1CCCC2 [KKL-1561] | 1%
O=C(CCC1CCCCC1)Nc1cccc(-c2nnc(-c3ccco3)o2)c1 [KKL-1701] | 3%
O=C(Nc1nc(-c2ccccn2)cs1)C12CC3CC(CC(O)(C3)C1)C2 [KKL-0384] | 0%
CC(C)(C)C(=O)CC1(O)Oc2ccccc2N=C1C=C(O)C(C)(C)C (centres unmarked) [KKL-1740] | 6%
C=CCc1cc(Cl)ccc1OCCCCn1ccnc1 [KKL-1370] | 0%
CC(C)n1ncc2c(C(=O)NCC(c3cccs3)N3CCOCC3)cc(-c3ccccc3)nc21 (centres unmarked) [KKL-1767] | 0%
CCCS(=O)(=O)c1nnnn1-c1cccc(OC)c1 [KKL-0294] | 0%
CCOc1ccc(C(=O)Nc2ccc(N3CCN(C(=O)c4cccs4)CC3)c(Cl)c2)cc1Br [KKL-1291] | 1%
CCCOC(=O)CSc1nnc(-c2cc(OC)c(OC)c(OC)c2)o1 [KKL-1095] | 0%
Cc1ccc2c(c1)C(O)CC1(CCN(CC(O)c3ccc4c(c3)CCCC4)CC1)O2 (centres unmarked) [KKL-0461] | 0%
Cc1ccc(-c2cc(C(=O)N3CCCC(N4CCN(c5ccccc5C)CC4)C3)[nH]n2)s1 (centres unmarked) [KKL-0485] | 0%
COC(=O)COc1ccc2c(-c3ccc(OC)cc3)cc(=O)oc2c1 [KKL-0407] | 0%
COc1cccc(CNCc2cn(-c3ccc(C)cc3)nc2-c2ccc(F)cc2)c1OC [KKL-0501] | 0%
CC(=O)N[C@H]1C(O[C@@H]2OC(CC(O)[C@H]3O[C@@H](n4ccc(=O)[nH]c4=O)[C@H](O)[C@@H]3O)[C@H](O)[C@H](O)[C@H]2NC(=O)/C=C/CCCCCCCCCCC(C)C)O[C@H](CO)[C@@H](O)[C@@H]1O (some centres unmarked) [KKL-1603] | 0%
Cc1nc2ccccc2n1CC(O)COc1ccc(C2C=CCC2)cc1 (centres unmarked) [KKL-0747] | 0%
O=C(CSc1ccc(Br)cc1)Nc1ccccc1F [KKL-1459] | 0%
CCCOc1ccc(C2Oc3ccc(Br)cc3C=C2[N+](=O)[O-])cc1OC (centres unmarked) [KKL-1434] | 2%
COc1ccc(C)cc1CN1CCC(c2cc3ncccc3cn2)CC1 [KKL-0470] | 0%

Compound | % activation
O=C(c1ccc(Cl)cc1)c1ccc(CSc2nnc(-c3ccccc3)o2)o1 [KKL-1212] | 0%
Cc1nc(C2CCNCC2)ncc1-c1nc(N2CCCCCC2)ncc1-c1ccc(F)cc1 [KKL-0335] | 0%
CCN(CC)c1ccc(NC(S)=NCc2ccc(Cl)cc2)cc1 [KKL-1543] | 2%
O=C(/C=C/c1ccc(Cl)c([N+](=O)[O-])c1)c1cccnc1 [KKL-0942] | 0%
Cc1ccc2nc(O)c(CNc3ccc(-c4nc5cc(C)ccc5[nH]4)cc3)cc2c1 [KKL-0532] | 0%
CCc1ccc(CN2CCC3(CC2)OCCc2sccc23)s1 [KKL-1775] | 2%
COc1ccc(OC)c(NC(=O)Nc2ccc(Cl)c(C(F)(F)F)c2)c1 [KKL-1544] | 0%
OC(CN1CCC(O)(c2ccc(F)cc2)CC1)c1ccc(-c2ccccc2)cc1 (centres unmarked) [KKL-0933] | 0%
COC(=O)CSc1ccc2c(N)c(C(=O)OC)sc2c1 [KKL-1512] | 0%
Cc1ccc2nc(/N=C(\N)NC(=O)NC3CCCCC3)nc(C)c2c1 [KKL-1002] | 0%
COc1ccc(Cc2nn3c(-c4ccccc4)nnc3s2)cc1 [KKL-0734] | 15%
CCOc1cc(CNCc2ccccc2OCc2ccccc2)cc(Cl)c1OCC [KKL-1066] | 14%
CCC(C)NC(=O)c1c(N)n(N=Cc2ccccn2)c2nc3ccccc3nc12 (centres unmarked) [KKL-0890] | 0%
COc1ccc(-c2nc(CN3CCC4(C=Cc5ccccc54)CC3)c(C)o2)c(F)c1 [KKL-0646] | 2%
c1csc(-c2nnc(Sc3ccnc(N4CCN(c5ccncc5)CC4)n3)n2CCCN2CCOCC2)c1 [KKL-1798] | 0%
COC(=O)COc1ccc(/C=C(/C#N)c2nc3ccccc3[nH]2)cc1 [KKL-1277] | 0%
O=C1Nc2ccccc2C1=NN=CC1=C(N2CCOCC2)/C(=C/c2ccccc2)CC1 [KKL-0851] | 0%
COc1ccc(C(CCNCc2ccc(F)cc2)c2ccc(F)cc2)cc1 (centres unmarked) [KKL-0880] | 0%
COc1cccc(-c2nc3c(N4CCCC4)cccc3n2CC2CCCN2)n1 (centres unmarked) [KKL-1755] | 0%
COc1cc(Br)cc2cc(C(=O)Nc3cccc(C(F)(F)F)c3)c(=O)oc12 [KKL-1294] | 0%
Cc1ccc2nc(C(F)(F)F)c(C(=O)NCc3ccco3)n2c1 [KKL-1792] | 0%

Compound | % activation
N#C/C(=C/c1ccc([N+](=O)[O-])o1)c1ccc(C#N)cc1 [KKL-0597] | 19%
Cc1ccc([N+](=O)[O-])cc1NC(=O)CN(C(=O)c1ccccc1Cl)C1CCCCC1 [KKL-1640] | 0%
Cc1c(CN(CCCn2ccnc2)Cc2ccc(F)cc2)[nH]c2ccc(F)cc12 [KKL-0545] | 2%
CCOC(=O)COc1ccc2c(C)c(CC(=O)OC)c(=O)oc2c1 [KKL-1441] | 1%
COC(=O)c1c(NC(=O)c2c(F)c(F)c(F)c(F)c2F)sc2c1CCCCC2 [KKL-1475] | 8%
CN(C)CCN(Cc1ccc2c(c1)OCO2)C(=O)c1cc2cc(Cl)ccc2n1C [KKL-0701] | 0%
CSc1ncc(C(=O)N2CCC(C3CCCCC3)C2)cn1 (centres unmarked) [KKL-0672] | 0%
CC(=O)Nc1nc2ccccc2n1CCOc1ccccc1 [KKL-0781] | 1%
COc1ccc(-c2c(C)nn3c(O)c(Cc4ccccc4)c(C)nc23)cc1 [KKL-1526] | 4%
CCN(CC)c1ccc(/C=C(/C#N)c2nc3ccccc3[nH]2)c(OC(C)C)c1 [KKL-1057] | 0%
Cc1ccc(NC(=O)c2ccc(N3CCN(C)CC3)c([N+](=O)[O-])c2)cc1Cl [KKL-0904] | 2%
Cc1cc2ncn(N=Cc3ccc([N+](=O)[O-])s3)c2cc1C [KKL-0376] | 32%
COc1cc(CNC(C)c2ccccc2)cc(Cl)c1OCC(=O)Nc1ccccc1 (centres unmarked) [KKL-1052] | 0%
Cn1cc(CCNC(=O)Nc2ccc(N3CCCCC3)nc2)cn1 [KKL-1828] | 0%
c1ccc(CCNc2ccnc3cc4ccccc4cc23)cc1 [KKL-1051] | 0%
CCOC(=O)c1cnc(-n2nc(C)cc2C)nc1NC(C)c1ccccc1 (centres unmarked) [KKL-0990] | 5%
CCOCn1ccc(NS(=O)(=O)c2ccc(N)cc2)nc1=O [KKL-1854] | 0%
CN(C)S(=O)(=O)c1ccc(C(=O)Nc2nnc(-c3ccc(Cl)s3)o2)cc1 [KKL-1747] | 1%
c1ccc(-c2nc(NCCCn3ccnc3)c3ccccc3n2)cc1 [KKL-0792] | 0%
COc1cccc(-n2nnnc2S(=O)(=O)Cc2ccccc2)c1 [KKL-1193] | 0%
OC(CN1CCC2(CC1)CC(O)c1cc(Cl)ccc1O2)c1ccc(Cl)cc1 (centres unmarked) [KKL-0934] | 0%

Laid out differently: results already given.
Cc1c(CN(CCCn2ccnc2)Cc2ccc(F)cc2)[nH]c2ccc(F)cc12 [KKL-0545]
  % activation: 2%
CN(C)CCN(Cc1ccc2c(c1)OCO2)C(=O)c1cc2cc(Cl)ccc2n1C [KKL-0701]
  % activation: 0%
COc1cc(CNC(C)c2ccccc2)cc(Cl)c1OCC(=O)Nc1ccccc1 (centres unmarked) [KKL-1052]
  % activation: 0%
Cn1cc(CCNC(=O)Nc2ccc(N3CCCCC3)nc2)cn1 [KKL-1828]
  % activation: 0%

(list continues)

Compound | % activation
O=C(CCNc1cccc(Cl)c1)c1ccc([N+](=O)[O-])cc1 [KKL-1449] | 0%
Cc1ccccc1-n1ncc(C(C)NC(=O)c2ccc3c(c2)no[n+]3[O-])c1C (centres unmarked) [KKL-1140] | 0%
COc1cc(/C=C/C2=CCN(C)CC2)ccc1OCC(=O)Nc1cccc(Cl)c1 [KKL-0529] | 3%
CCOc1cc2ccccc2cc1C(=O)NC [KKL-1734] | 0%
Cc1ccc(CN(CCCn2ccnc2)Cc2[nH]c3ccc(F)cc3c2C)s1 [KKL-1202] | 20%
COc1ccc(-c2cncc(-c3cc(N4CCN(CCO)CC4)nc(-c4ccccc4)n3)c2)cc1 [KKL-1682] | 0%
Cc1sc2nc(C(C)C)n(C3CCN(C(=O)c4ccncc4)CC3)c(=O)c2c1C [KKL-0464] | 14%
Cn1nc(-c2cccnc2)cc1CN1CCN(C(=O)c2cc3ccc(Cl)cc3[nH]2)CC1 [KKL-1238] | 3%
Cc1ccc(Nc2nnc(SCC(=O)Nc3cccnc3Cl)s2)cc1C [KKL-0826] | 0%
CSc1ccc(C(=O)C2CCCN(Cc3ccc(C#CCCO)cc3)C2)cc1 (centres unmarked) [KKL-1157] | 2%
O=C(CNCCN1CCOCC1)Nc1sc2c(c1C(=O)Nc1ccccc1)CCC2 [KKL-1074] | 2%
CC(=O)c1ccc(NC(S)=Nc2ccc(Br)c(Cl)c2)cc1 [KKL-1333] | 0%
CCOc1ccc(Nc2nc(-c3ccccn3)cs2)cc1 [KKL-1101] | 0%
CC1=CCC(c2cnc(-c3ccccc3)c(C)c2)NC1c1ccccc1 (centres unmarked) [KKL-0448] | 0%
Cc1cccc(C2c3[nH]c4ccccc4c3CCN2Cc2ccc3cc(F)ccc3n2)n1 (centres unmarked) [KKL-0645] | 0%
CCOC(=O)c1ccc(NC(=O)CSc2nnc(-c3ccc(OC)cc3)o2)cc1 [KKL-1405] | 4%
COC(=O)CSc1nc(N)c2c3c(sc2n1)CCCC3 [KKL-0994] | 9%
O=C(CCCSc1ccccc1)NNC(=O)c1cccs1 [KKL-1709] | 3%
Cc1ccccc1NC(=O)c1ccccc1NC(=S)NC(=O)c1cccnc1 [KKL-1211] | 9%
O=C(N[C@@H](Cc1ccccc1)C(=O)Nc1ccccc1N1CCOCC1)c1cccs1 [KKL-1871] | 4%

Single entries from the list.
% activation with Cn1nc(-c2cccnc2)cc1CN1CCN(C(=O)c2cc3ccc(Cl)cc3[nH]2)CC1 [KKL-1238] reads 3%
% activation with CCOc1cc2ccccc2cc1C(=O)NC [KKL-1734] reads 0%
% activation with O=C(CCCSc1ccccc1)NNC(=O)c1cccs1 [KKL-1709] reads 3%
